Results are given in words; binding and its absence hold for the method and conditions named. For some assays here: Binding seen in cells or lysates may run through a third protein. Sequences can lack the tags named with a protein. One block for each binder: values may come before it.
Experiments:
[1] = target: N-terminal half of phyB (D153-PHYB NT), BD fusion (Arabidopsis); assay: two-hybrid; light-dependent; AD and BD fusions in yeast AH109; growth on -LTH with 5 mM 3-AT and 20 µM phycocyanobilin, 30 °C, 2 days, red light or dark
[2] = target: NG (phyB N terminal-GFP-GUS-NLS), previously described transgenic plants (Arabidopsis); assay: pull-down; semi-in vitro: phyB-GFP proteins immunoprecipitated from dark-grown seedlings on anti-GFP Dynabeads, whole cell extract of E. coli with MBP-SPA1 added; red or far-red light 5 min, 2 h at 4 °C; anti-MBP blot; only the target purified

binding [1]: no binding
B1: AD-SPA1 (light-dependent two-hybrid, AH109) (protein, UniProt Q9SYX2 1-1029)
chain: MPVMERVAEETVATNNIQLKARVDDVPCNKLDARHNDMVIQSETANSDCPGSSAHRNVDLTKPPPPEEAAGAKLSVEELTLGNYRIVQGSNNTNVDSPRAGKFEHLYRLARGSAFRAGDGDLDSQPRDMDQMLSRIRQQLAGAPSERQNLKPFMSRRSDQNLEAFSERLRAAGENSIMNAPALISEGVQMKTPVSSSNFSQLLLKRAMKGKGVVGKNQETPPEFVSDQDLGSKEKKLDISKSPTPHDVLPLKSSPKGNGMVSHGDGNHSKSSIGISLREFLRSSYAKREKRHGLCLFRQLVELVDSAHSKRLFLLDLRPSLFTLVPSKKLRYIGNFGKNDLESDVDEDLNRRRPVVEESSSGGRDSKKRKMDLHLNSPGNQLQATSTGRPFKRKSPVIDLNMVDARNPDSCELQQQDYIKNLSVSSVSRKQSMSTWLEEQWYTCPEEINGEDIGEKSNIYALGVLLFELLCHCESGEMHAAMMADLRHRILPPTFLSKYPKEAGFCLWLLHPEPSSRPSARDILKSELICEDDSVKSTAAAEEISELLLHFLSSLEVQKKKKASKLLQDIQTLEDDIKEAERRYSSNVSLVRSHGAIEKRVQSSPLDEHCTTSSALFVPTANTDRLMSNIRQLEDAYFFMRSQINLSSSAATARSDKTLKDRDRCSENQNENQDMSTKGKSSDQLEVFFEGLCKFARYSKFETCGTIRSGDLLNSASVVCSLSFDPDEEHIAAAGISKKIKIFDFNAFMNESVGVHYPLVEMVNKSKLSCVCWNSYIKNYLASTDYDGVVQIWDAGTGQGFSQYTEHQKRAWSVDFSPSDPTKFVSGSDDCSVKLWSINEKRSLGTIWSPANVCCVQFSSYSNHLLAFGSADYKVYCYDLRYVKTPWCTLAGHEKAVSYVKFMDSETIVSASTDNSLKLWNLNKTNSSGLSPGACSLTYKGHTNQKNFVGLSVLDGYIACGSETNEVYSYYKSLPMPMTSYKFGSVDPISGNEYFDDNGQFVSSVCWRKKSNMLVAANSTGNMKLLKLV

binding [2]: no binding
B2: MBP-SPA1 (protein, UniProt Q9SYX2 1-1029)
chain: B1 chain

Reference: PMC6746701, “A phyB-PIF1-SPA1 kinase regulatory complex promotes photomorphogenesis in Arabidopsis” (Nature Communications, 2019)
